The mice bore no tumour; each value counts animals alive of those treated. Counts of survivors are from the toxicity check (mostly the fifth day) where no day follows; animals may have died later. Schedule codes are those of the source, taken here to give the interval after Q, in days (D) or hours (H), and the number of doses after X. Counts like (3×) say how often a value occurs here. Some entries were tested several times; the results are listed from low to high.
Tested on: B6D2F1 mice, nontumored toxicity test, survival
Experiment: NCI In Vivo Anticancer Drug Screen. Data for tumor model Nontumored Animals (Toxicity Test) in B6D2F1 (BDF1) mice

In the case of `Nc1ncnc2c1ncn2C1CC(O)C(CO)O1` (centres undefined), the survivor count (dose: 150.0 mg/kg/injection, schedule: Q03HX024 (ip), vehicle: saline with Tween-80) is reported as 5 of 5, the survivor count (dose: 220.0 mg/kg/injection, schedule: Q03HX024 (ip), vehicle: saline with Tween-80) is reported as 5 of 5 and the survivor count (dose: 330.0 mg/kg/injection, schedule: Q03HX024 (ip), vehicle: saline with Tween-80) is reported as 5 of 5. For the same compound, the survivor count (dose: 440.0 mg/kg/injection, schedule: Q03HX024 (ip), vehicle: saline with Tween-80) was 5 of 5 and the survivor count (dose: 660.0 mg/kg/injection, schedule: Q03HX024 (ip), vehicle: saline with Tween-80) was 5 of 5.
`COc1ccc2[nH]c3c(C)c4ccncc4c(C)c3c2c1` was tested, and the survivor count (dose: 1.0 mg/kg/injection, schedule: Q03HX016 (ip), vehicle: water) was 8 of 8, the survivor count (dose: 1.0 mg/kg/injection, schedule: Q03HX024 (ip), vehicle: water) was 8 of 8 and the survivor count (dose: 2.0 mg/kg/injection, schedule: Q03HX008 (ip), vehicle: water) was 8 of 8. The survivor count (dose: 2.0 mg/kg/injection, schedule: Q03HX008 (sc), vehicle: water) was 8 of 8, the survivor count (dose: 2.0 mg/kg/injection, schedule: Q03HX016 (ip), vehicle: water) was 8 of 8 and the survivor count (dose: 2.0 mg/kg/injection, schedule: Q03HX024 (ip), vehicle: water) was 8 of 8. For the same compound, the survivor count (dose: 4.0 mg/kg/injection, schedule: Q01DX009 (ip), vehicle: water) was 8 of 8 (2×), the survivor count (dose: 4.0 mg/kg/injection, schedule: Q01DX009 (sc), vehicle: water) was 8 of 8 and the survivor count (dose: 4.0 mg/kg/injection, schedule: Q03HX008 (ip), vehicle: water) was 8 of 8. The survivor count (dose: 4.0 mg/kg/injection, schedule: Q03HX008 (sc), vehicle: water) was 8 of 8, the survivor count (dose: 4.0 mg/kg/injection, schedule: Q03HX016 (ip), vehicle: water) was 8 of 8 and the survivor count (dose: 4.0 mg/kg/injection, schedule: Q03HX024 (ip), vehicle: water) was 8 of 8. The survivor count (dose: 8.0 mg/kg/injection, schedule: Q01DX009 (ip), vehicle: water) was 7 of 8 and 8 of 8, the survivor count (dose: 8.0 mg/kg/injection, schedule: Q01DX009 (sc), vehicle: water) was 7 of 7 and the survivor count (dose: 8.0 mg/kg/injection, schedule: Q03HX008 (ip), vehicle: water) was 8 of 8. The survivor count (dose: 8.0 mg/kg/injection, schedule: Q03HX008 (sc), vehicle: water) was 8 of 8, the survivor count (dose: 8.0 mg/kg/injection, schedule: Q03HX016 (ip), vehicle: water) was 7 of 8 and the survivor count (dose: 8.0 mg/kg/injection, schedule: Q03HX024 (ip), vehicle: water) was 7 of 8. The survivor count (dose: 8.0 mg/kg/injection, schedule: Q04DX003 (ip), vehicle: other) was 8 of 8, the survivor count (dose: 8.0 mg/kg/injection, schedule: Q08DX002 (ip), vehicle: other) was 8 of 8 and the survivor count (dose: 16.0 mg/kg/injection, schedule: Q01DX001 (ip), vehicle: water) was 7 of 8. The survivor count (dose: 16.0 mg/kg/injection, schedule: Q01DX001 (sc), vehicle: other) was 8 of 8, the survivor count (dose: 16.0 mg/kg/injection, schedule: Q01DX009 (ip), vehicle: water) was 8 of 8 (2×) and the survivor count (dose: 16.0 mg/kg/injection, schedule: Q01DX009 (sc), vehicle: water) was 8 of 8. The survivor count (dose: 16.0 mg/kg/injection, schedule: Q03HX008 (ip), vehicle: water) was 8 of 8, the survivor count (dose: 16.0 mg/kg/injection, schedule: Q03HX008 (sc), vehicle: water) was 8 of 8 and the survivor count (dose: 16.0 mg/kg/injection, schedule: Q03HX016 (ip), vehicle: water) was 6 of 8. For the same compound, the survivor count (dose: 16.0 mg/kg/injection, schedule: Q03HX024 (ip), vehicle: water) was 8 of 8, the survivor count (dose: 16.0 mg/kg/injection, schedule: Q04DX003 (ip), vehicle: other) was 8 of 8 and the survivor count (dose: 16.0 mg/kg/injection, schedule: Q08DX002 (ip), vehicle: other) was 7 of 8. The survivor count (dose: 32.0 mg/kg/injection, schedule: Q01DX001 (ip), vehicle: water) was 8 of 8, the survivor count (dose: 32.0 mg/kg/injection, schedule: Q01DX001 (sc), vehicle: other) was 8 of 8 and the survivor count (dose: 32.0 mg/kg/injection, schedule: Q01DX009 (ip), vehicle: water) was 6 of 8 and 8 of 8. For the same compound, the survivor count (dose: 32.0 mg/kg/injection, schedule: Q01DX009 (sc), vehicle: water) was 7 of 8, the survivor count (dose: 32.0 mg/kg/injection, schedule: Q03HX008 (ip), vehicle: water) was 3 of 8 and the survivor count (dose: 32.0 mg/kg/injection, schedule: Q03HX008 (sc), vehicle: water) was 8 of 8. The survivor count (dose: 32.0 mg/kg/injection, schedule: Q03HX016 (ip), vehicle: water) was 2 of 8, the survivor count (dose: 32.0 mg/kg/injection, schedule: Q03HX024 (ip), vehicle: water) was 2 of 8 and the survivor count (dose: 32.0 mg/kg/injection, schedule: Q04DX003 (ip), vehicle: other) was 8 of 8. For the same compound, the survivor count (dose: 32.0 mg/kg/injection, schedule: Q08DX002 (ip), vehicle: other) was 8 of 8, the survivor count (dose: 64.0 mg/kg/injection, schedule: Q01DX001 (ip), vehicle: water) was 8 of 8 and the survivor count (dose: 64.0 mg/kg/injection, schedule: Q01DX001 (sc), vehicle: other) was 8 of 8. For the same compound, the survivor count (dose: 64.0 mg/kg/injection, schedule: Q01DX009 (ip), vehicle: water) was 0 of 8 and 2 of 8, the survivor count (dose: 64.0 mg/kg/injection, schedule: Q01DX009 (sc), vehicle: water) was 8 of 8 and the survivor count (dose: 64.0 mg/kg/injection, schedule: Q03HX008 (ip), vehicle: water) was 0 of 8. The survivor count (dose: 64.0 mg/kg/injection, schedule: Q03HX008 (sc), vehicle: water) was 8 of 8, the survivor count (dose: 64.0 mg/kg/injection, schedule: Q04DX003 (ip), vehicle: other) was 8 of 8 and the survivor count (dose: 64.0 mg/kg/injection, schedule: Q08DX002 (ip), vehicle: other) was 7 of 8. The survivor count (dose: 128.0 mg/kg/injection, schedule: Q01DX001 (ip), vehicle: water) was 3 of 8, the survivor count (dose: 128.0 mg/kg/injection, schedule: Q01DX001 (sc), vehicle: other) was 8 of 8 and the survivor count (dose: 128.0 mg/kg/injection, schedule: Q01DX009 (ip), vehicle: water) was 1 of 8. For the same compound, the survivor count (dose: 128.0 mg/kg/injection, schedule: Q04DX003 (ip), vehicle: other) was 4 of 8, the survivor count (dose: 128.0 mg/kg/injection, schedule: Q08DX002 (ip), vehicle: other) was 3 of 8 and the survivor count (dose: 256.0 mg/kg/injection, schedule: Q01DX001 (ip), vehicle: water) was 2 of 8. For the same compound, the survivor count (dose: 256.0 mg/kg/injection, schedule: Q01DX001 (sc), vehicle: other) was 8 of 8, the survivor count (dose: 256.0 mg/kg/injection, schedule: Q04DX003 (ip), vehicle: other) was 3 of 8 and the survivor count (dose: 256.0 mg/kg/injection, schedule: Q08DX002 (ip), vehicle: other) was 1 of 8.
In the case of `CSCCCNC(=O)c1csc(-c2csc(CCNC(=O)c3ccccc3)n2)n1`, the survivor count (dose: 6.25 mg/kg/injection, schedule: Q01DX011 (ip), vehicle: saline) is reported as 6 of 6, the survivor count (dose: 12.5 mg/kg/injection, schedule: Q01DX011 (ip), vehicle: saline) is reported as 6 of 6 and the survivor count (dose: 25.0 mg/kg/injection, schedule: Q01DX011 (ip), vehicle: saline) is reported as 6 of 6. For the same compound, the survivor count (dose: 50.0 mg/kg/injection, schedule: Q01DX011 (ip), vehicle: saline) was 6 of 6, the survivor count (dose: 100.0 mg/kg/injection, schedule: Q01DX011 (ip), vehicle: saline) was 6 of 6 and the survivor count (dose: 200.0 mg/kg/injection, schedule: Q01DX011 (ip), vehicle: saline) was 6 of 6. The survivor count (dose: 400.0 mg/kg/injection, schedule: Q01DX011 (ip), vehicle: saline) was 6 of 6.

Reference: PubChem BioAssay AID186 (DTP/NCI, 2004)
